Results deposited as PubChem BioAssay AID1159578 (Peter MacCallum Cancer Centre, 2015)
Screen: 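Knock-downs that alter how fast lymphatic endothelial cells migrate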 (primary screen). Cell system: human lymphatic endothelial cells. Reagent: siRNA pool against human genes, 40 nM. Duration: 48 h after transfection. Read-out: 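Cells stained with dye and imaged after a scratch; covered wound area and nuclei counted, duplicates averaged, migration set against mock wells and turned into a robust z-score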. Reading the numbers: migration robust z-score: higher = faster migration into the scratch; nuclei per well: higher = more cells in the well. Rule for the call: 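Pools averaging fewer than 3300 nuclei are never called; remaining pools count as changed when migration robust z lies outside -2 to 2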. Meaning of the calls: active = migration changed; inactive = no migration change, or too few cells.
Here is one part, drawn at random, of about 18,000 deposited reagents. About 1,030 of them (5.7%) count as active. 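Inactive calls also include pools with fewer than 3300 nuclei, whose migration was not assessed.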 Raw values are not corrected between plates. A number with no mark means an inactive call. Further read-outs or replicates are left out here.

What is on record for NEUROG3?
migration robust z-score: 0.82; nuclei per well, duplicate mean: 5656

With OR2AG2, what was measured?
migration robust z-score: -1.89; nuclei per well, duplicate mean: 4993

For SARNP, what was measured?
migration robust z-score: 0.02; nuclei per well, duplicate mean: 5560

How did the screen score ZFYVE21?
migration robust z-score: -0.48; nuclei per well, duplicate mean: 5128

Which result is listed for OR4M1?
migration robust z-score: -0.52; nuclei per well, duplicate mean: 6582

What did the screen give for ADRB1?
migration robust z-score: 0.54; nuclei per well, duplicate mean: 6456

With ATXN2, how do the results read?
migration robust z-score: 0.17; nuclei per well, duplicate mean: 5336

For CD22, how do the results read?
migration robust z-score: -0.41; nuclei per well, duplicate mean: 6556

How did the screen score GKN2?
migration robust z-score: -0.48; nuclei per well, duplicate mean: 5684

What did the screen give for DSEL?
migration robust z-score: -0.73; nuclei per well, duplicate mean: 4965

Which result is listed for TRIM26?
migration robust z-score: -1.01; nuclei per well, duplicate mean: 5227

For DCTN5, what was measured?
migration robust z-score: -0.15; nuclei per well, duplicate mean: 2920

Which result is listed for GRIN2C?
migration robust z-score: 1.68; nuclei per well, duplicate mean: 5980

With ZWINT, what was measured?
migration robust z-score: -0.06; nuclei per well, duplicate mean: 5752
